Data published in article PMC7332293.
Results are given in words; binding and its absence hold for the method and conditions named. In cells and extracts the contact can be indirect. A yes stands for co-enrichment or nearness to the bait. Other partners may have been found. For some assays here: Tags and fused reporters may be left off the sequences shown.

Chains of the proteins cited; added tags and fusions are not shown.
UniProt Q99942: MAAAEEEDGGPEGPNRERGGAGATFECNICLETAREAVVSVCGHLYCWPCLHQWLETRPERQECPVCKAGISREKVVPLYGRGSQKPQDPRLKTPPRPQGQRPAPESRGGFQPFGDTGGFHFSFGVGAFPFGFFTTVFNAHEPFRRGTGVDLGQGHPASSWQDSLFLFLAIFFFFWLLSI
UniProt P55061: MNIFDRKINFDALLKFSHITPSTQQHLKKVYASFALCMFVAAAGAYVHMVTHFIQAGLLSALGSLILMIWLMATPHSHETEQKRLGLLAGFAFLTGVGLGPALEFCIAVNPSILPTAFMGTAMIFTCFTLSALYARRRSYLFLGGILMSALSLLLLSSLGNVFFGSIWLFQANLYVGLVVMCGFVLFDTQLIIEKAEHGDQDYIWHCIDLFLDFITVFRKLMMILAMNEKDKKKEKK
UniProt Q4ZIN3: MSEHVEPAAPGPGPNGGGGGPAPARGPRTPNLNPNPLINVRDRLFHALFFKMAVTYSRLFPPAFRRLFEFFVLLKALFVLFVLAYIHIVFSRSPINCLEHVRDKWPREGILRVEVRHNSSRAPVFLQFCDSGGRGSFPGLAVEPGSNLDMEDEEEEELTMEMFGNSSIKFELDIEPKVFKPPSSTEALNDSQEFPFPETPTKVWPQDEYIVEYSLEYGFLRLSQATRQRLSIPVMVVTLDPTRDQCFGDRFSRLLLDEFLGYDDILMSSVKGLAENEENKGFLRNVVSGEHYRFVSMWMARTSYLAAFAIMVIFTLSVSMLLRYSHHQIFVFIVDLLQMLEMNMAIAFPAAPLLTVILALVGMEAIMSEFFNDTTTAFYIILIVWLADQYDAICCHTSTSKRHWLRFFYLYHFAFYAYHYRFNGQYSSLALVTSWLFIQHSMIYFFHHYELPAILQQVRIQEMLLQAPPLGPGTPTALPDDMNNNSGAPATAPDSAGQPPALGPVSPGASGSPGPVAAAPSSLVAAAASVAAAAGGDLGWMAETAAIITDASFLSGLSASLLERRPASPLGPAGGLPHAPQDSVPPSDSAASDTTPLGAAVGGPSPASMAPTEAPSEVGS
UniProt Q71RG4: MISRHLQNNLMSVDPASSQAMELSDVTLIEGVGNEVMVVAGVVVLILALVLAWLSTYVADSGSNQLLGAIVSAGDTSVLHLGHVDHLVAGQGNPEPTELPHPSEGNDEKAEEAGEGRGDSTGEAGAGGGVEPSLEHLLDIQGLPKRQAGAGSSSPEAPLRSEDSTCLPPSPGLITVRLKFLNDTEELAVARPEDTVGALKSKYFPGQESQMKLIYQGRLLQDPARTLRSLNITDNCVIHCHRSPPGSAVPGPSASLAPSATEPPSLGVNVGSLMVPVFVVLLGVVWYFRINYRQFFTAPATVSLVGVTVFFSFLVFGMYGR

Experiments:
Test in all cases: affinity purification with mass spectrometry; FLAG-HA-tagged E3 induced with DOX in stable Flp-In293 cells; lysates in 1% LMNG (150 mM NaCl, 50 mM Tris-HCl pH 7.4, 5 mM EDTA); anti-FLAG agarose, 2 hr; eluted with SDS; LC-MS/MS; HCIPs by BSCG and SINQ analysis
FH-RNF185 (human) = biological target: T1, FH-RNF185 (human) (UniProt Q96GF1)
T1 sequence: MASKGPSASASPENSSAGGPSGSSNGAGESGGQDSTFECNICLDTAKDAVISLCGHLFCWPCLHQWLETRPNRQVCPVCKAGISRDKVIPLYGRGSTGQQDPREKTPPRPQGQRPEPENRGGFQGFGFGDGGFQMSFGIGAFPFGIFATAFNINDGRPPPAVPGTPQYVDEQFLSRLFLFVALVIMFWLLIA

[1] = biological target: T2, FLAG-HA-tagged RNF170 (human) (UniProt Q96K19)
T2 sequence: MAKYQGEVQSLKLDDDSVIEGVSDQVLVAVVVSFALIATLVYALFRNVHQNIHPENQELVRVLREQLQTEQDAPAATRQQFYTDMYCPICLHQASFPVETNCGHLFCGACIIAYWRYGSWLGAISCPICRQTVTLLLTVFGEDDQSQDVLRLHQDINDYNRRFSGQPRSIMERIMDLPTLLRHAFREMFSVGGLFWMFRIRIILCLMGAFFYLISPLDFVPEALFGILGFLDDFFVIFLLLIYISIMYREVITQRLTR

[2] = biological target: T3, FLAG-HA-tagged MARCH4 (human) (UniProt Q9P2E8)
T3 sequence: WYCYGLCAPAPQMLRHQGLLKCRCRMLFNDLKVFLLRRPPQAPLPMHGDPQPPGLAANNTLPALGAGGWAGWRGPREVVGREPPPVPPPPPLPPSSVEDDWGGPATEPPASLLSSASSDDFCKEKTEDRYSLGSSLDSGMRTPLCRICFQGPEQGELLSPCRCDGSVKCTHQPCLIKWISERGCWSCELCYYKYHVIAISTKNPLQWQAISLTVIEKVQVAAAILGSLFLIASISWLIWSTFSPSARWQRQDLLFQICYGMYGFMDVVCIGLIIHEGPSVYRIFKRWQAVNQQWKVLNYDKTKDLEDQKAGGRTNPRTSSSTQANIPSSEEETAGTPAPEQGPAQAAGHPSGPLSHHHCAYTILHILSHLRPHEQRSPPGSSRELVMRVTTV

[3] = biological target: FLAG-HA-tagged RNF5 (human) (UniProt Q99942)

Substance	binding (FH-RNF185 (human))	binding [1]	binding [2]	binding [3]
TMBIM6/BI-1/Bax-inhibitor 1 (from UniProt P55061 1-237)	binds	binds	–	–
TMEM259/Membralin (endogenous) (from UniProt Q4ZIN3 1-620)	binds	–	–	–

Results, then the substance that gave them:

binding (FH-RNF185 (human))	binding [1]	binding [2]	binding [3]	Substance
binds	–	–	–	TMUB2 (from UniProt Q71RG4 1-321)
binds	–	binds	binds	VCP/p97 (from UniProt P55072 1-806) (enzyme)
binds	–	–	–	RNF5 (endogenous, found as HCIP) (from UniProt Q99942 1-180) (enzyme)
